From patent US4053603A, “Benzylisoquinoline derivatives, and use as anti-arrhythmic drugs” (Astra Pharmaceutical Products, Inc., priority 1976, dated 1977) come the findings set out here.

The structures appear in SMILES notation.

Data set [1] concerns chloroform-induced ventricular fibrillation. The data set is described as follows: protection against chloroform-induced ventricular fibrillation in mice. It is filed as in vivo, mouse (female Swiss albino, Ham/ICR). The settings on record: ED50^-1 in mmol/kg, standardized to compound 1 = 1. As to the method:
(§1) Ventricular fibrillation was produced in female Swiss albino mice (Ham/ICR weighing 18-25g.) essentially according to the method described by Lawson in J. Pharm, Exp. Therap. 160, 22 (1968).
The mice were placed individually into a 2,000 ml. beaker with cotton and 50 ml. of chloroform. Immediately after cessation of respiration the mouse was removed from the beaker, the thorax opened and the heart examined for the presence or absence of ventricular fibrillation. Each heart was stimulated by touching with forceps, and the nature of the cardiac rhythm was noted and confirmed by electrocardiographic recordings. The heart was considered to be fibrillating if fine tremulous movements were present on the surface of the ventricle and persisted for at least five seconds after the mechanical stimulus. […]
For initial evaluation of antiarrhythmic activity and toxicity of test compounds, a dose of 100 mg/kg (calculated for the base form, 1% solution in 0.9% saline, adjusted to pH 6-7) was administered subcutaneously to a group of 10 non-fasted, randomly selected mice. […]
The data obtained from the three point assay was computer-analyzed using Berkson's minimum logit chi square analysis. […] Relative potency figures were calculated (ED50^-1 in mmol/kg) and standardized to give a potency of 1 for compound 1.

Another data set concerns mice. Briefly: central nervous system toxicity observation in mice (ataxia, convulsions, loss of righting reflex, death). It is filed as in vivo, mouse (female Swiss albino, Ham/ICR). Here is the method: as §1
For initial evaluation of antiarrhythmic activity and toxicity of test compounds, a dose of 100 mg/kg (calculated for the base form, 1% solution in 0.9% saline, adjusted to pH 6-7) was administered subcutaneously to a group of 10 non-fasted, randomly selected mice. […] After 20 minutes they were exposed to chloroform vapors and tested for protection against fibrillation.

The mark [2] stands for this setting: 100 mg/kg s.c., 10 mice, 20 min observation.

For the molecule `CCN(CC)CC(=O)Nc1c(C)cccc1C` [Lidocaine, 2-diethylamino-2',6'-acetoxylidide, reference compound], in data set [1], the “relative Potency (molar basis)” value was 2. Further, in the data set on mice (setting [2]), the “Toxicity: Ataxia (number of mice)” value stood at 10, the “Toxicity: Con. (Convulsions) (number of mice)” value turned out to be 10 and the “Toxicity: LRR (Loss of righting reflex) (number of mice)” value amounted to 10. The “toxicity (in words)” value in the data set on mice (mice) is “high toxicity”.
